Assay results from the supplement of paper PMC5949888.
Most values lie at the floor of the assay. Slopes are relative: functional sequences can read slightly below zero.

Each substance was assayed on Saccharomyces cerevisiae PS128 hsf1 delta, HSF1(1-493) fusion (assay: growth estimate (transactivation domain function in HSF1 fusion, heat-shock survival) (a.u. (slope of normalised read count over time)); higher = stronger growth at 37°C, i.e. more transactivation activity). Settings: library: random library.

| Substance | growth estimate |
| --- | --- |
| QCW | < -0.25 |
| EAGPTSQQGLLGR | < -0.25 |
| KCKLIGGRSSCSWTKPRCAY | < -0.25 |
| QGFNSRPYFPVLYYQLRARY | < -0.25 |
| EVIGVLRLDQRPHYSAFTTR | < -0.25 |
| IVGFEPRRLSGDLMWDRSAQ | < -0.25 |
| DVFSTIYQFRGVPNVGKVHW | < -0.25 |
| TARPQGRFFCGQEDIPG | < -0.25 |
| RSLVAEGEG | < -0.25 |
| SVHLLGRFGYIVGFDTQNPS | < -0.25 |
| SDCFVYIGCPLMNSGHGSLT | < -0.25 |
| VAVKITL | < -0.25 |
| SGIQAN | < -0.25 |
| PDVAIRVEGIPALLTSLTQG | < -0.25 |
| VRA | < -0.25 |
| AGVYRRT | < -0.25 |
| WCPVIGFSSPQLGTMDLPDT | < -0.25 |
| PWLIDLLESSRDYVEK | < -0.25 |
| GRYRPFGHRQLFPVAC | < -0.25 |
| CWKLTSYNYSGWPSPRPLSG | -0.0944 |
| DKGGLLPCYG | < -0.25 |
| DTGSHIIRPPLRS | < -0.25 |
| HPARWRSG | < -0.25 |
| RIAKNLMSSGGLVA | < -0.25 |
| DERGTLSDPPVFCFGHQRPK | < -0.25 |
| FRLVHISGCNDLHGLM | < -0.25 |

| Substance | growth estimate |
| --- | --- |
| RKRNADG | < -0.25 |
| KPYVSRLATAANNAGQD | < -0.25 |
| AKVKTPK | < -0.25 |
| SRLSINLHTRCLERKGITDA | < -0.25 |
| IMGSGLE | < -0.25 |
| SQSSGAKTAVALLARDMESR | < -0.25 |
| IWRLVGIVKPSLLHVRSRCP | < -0.25 |
| GRVGEVRTVHMS | < -0.25 |
| WQEFRQLTRGFGGTYSSIDA | < -0.25 |
| ASSNWSSREGDELLRWRRVS | < -0.25 |
| PATFVTSCRDRRGRQPSYNC | < -0.25 |
| GQLLLTLASLPRLKQSTRSR | < -0.25 |
| FWKEVV | -0.246 |
| GRKIHCRSERLRGQSERFAP | < -0.25 |
| SSNGIPDSVT | < -0.25 |
| LEGRIRPKLGPLAHDLSLAV | < -0.25 |
| EGQFSFYRGGLVTA | < -0.25 |
| VQDEYHRTLQLYASSAL | < -0.25 |
| QLMTDLGLWSLSDRGLERVS | < -0.25 |
| GELGWSRLT | < -0.25 |
| IGRQGGIPGRFNRVLLWTGK | < -0.25 |
| LKINICLSKRQRALGLRFVP | -0.25 |
| PKRNTCP | < -0.25 |
| AQAPLAVRIPNEGAGTRQGH | < -0.25 |
| DVLSIGVYMVCWFAALVDTH | < -0.25 |
| DCATVPLCHFTADDCRRAFH | < -0.25 |

| Substance | growth estimate |
| --- | --- |
| QPPTPLVVFLINGSIVSDTL | < -0.25 |
| FYLCRLCPCECTLTLVILTW | -0.25 |
| PLCVV | < -0.25 |
| GWYSGWRRLGLGDASDQVAA | < -0.25 |
| RRVLRAYPVNVGDTSRCRQS | < -0.25 |
| HLDFGIFIQARTMITFESGR | < -0.25 |
| PKGSE | < -0.25 |
| LHSTCYQSED | < -0.25 |
| MSSRLSRFPEPPSERQPGPG | < -0.25 |
| IEVTIHGRQLPTLPLAQHSL | < -0.25 |
| LHES | < -0.25 |
| TIPYVQSFTKIGLGAG | < -0.25 |
| FDD | < -0.25 |
| TKVAQQAS | < -0.25 |
| RSQILCYWTE | < -0.25 |
| VIFITDRRSNEGPLGPAGAG | -0.25 |
| GLRT | < -0.25 |
| VPIMELQMSVVLDEMYA | < -0.25 |
| YSFRNRSGVRSC | -0.248 |
| DGRKNWFIGSSCSRAGGPHG | < -0.25 |
| SEVSRSTFHPSCSRG | < -0.25 |
| LSVSMRLNTGNRAWVKTRRD | < -0.25 |
| DSGTILPL | < -0.25 |
| SKPES | < -0.25 |
| GSIPSC | < -0.25 |
| LTRTGEPGACSEDRLRRHTR | < -0.25 |

| Substance | growth estimate |
| --- | --- |
| LLWSIRSCLGAPSVELALSR | < -0.25 |
| RISKGWRSHHLRGRVRLMGC | < -0.25 |
| RAICTTAPERAAPPEGAGSF | < -0.25 |
| FKENRT | -0.245 |
| IFTPRILRAAPSNSLVTYDR | < -0.25 |
| AYLRSLGAEPNLPGDVEREV | < -0.25 |
| RCLSVGHLICSG | < -0.25 |
| CIVSLGYG | < -0.25 |
| GLDSLRCEVS | < -0.25 |
| YKYNPFGTLCRLTPSDDWG | < -0.25 |
| TVIRASFWAVRPTNALPAGK | < -0.25 |
| YGQPVPILFWGSGEQG | < -0.25 |
| FDRCVYCTC | < -0.25 |
| KTSIGYWSVVALLPDTYRPC | < -0.25 |
| LFRMFDDAMDQGDTLNVTHR | -0.156 |
| HEARRQAMREGI | < -0.25 |
| CICRQAQRRCLRETAMGEHT | < -0.25 |
| PLSGNGQVRLPSRGNPFNFN | < -0.25 |
| PGWDNSYTKSIP | < -0.25 |
| FTSLRPHMPTFHSRVCTAGR | < -0.25 |
| ALTQLRAQNNILGTGNPRDG | < -0.25 |
| SSWPDTELLTSVGADRERGA | < -0.25 |
| LRFIWYILIHRKGSEKMRDR | < -0.25 |
| SLMTCRRLVGRG | < -0.25 |
| QSWVAAYIAQKN | < -0.25 |
| LTDSSPNFPEGKRVIN | < -0.25 |

| Substance | growth estimate |
| --- | --- |
| NMSTLRSAQGMKGSGLVSTQ | < -0.25 |
| CVGVWSLEDGWQRLGKKEA | < -0.25 |
| KGPHSESYPVSGPTDNFRRH | < -0.25 |
| GPNLRKSLMGHRRMPFPIIG | < -0.25 |
| TGEPAWQTGAIALSRLRTVY | < -0.25 |
| TLHRENRQSLRPS | -0.243 |
| MTAIHQRGYAPVLKHNKRPG | < -0.25 |
| GGYGRDLSGASREGLSQSIP | < -0.25 |
| TVRKNRCRHSLRAKSVRSAR | < -0.25 |
| RVIGPKTRTVTTGWEIVTKH | < -0.25 |
| ASRLVNQSKNLVILCVMSTP | < -0.25 |
| SPLALGNVCESSAS | < -0.25 |
| GGFYIHNLSTHSVPCRCGDE | < -0.25 |
| IGCGYVA | < -0.25 |
| FLVRPMYKRRALGRKGLEGL | < -0.25 |
| LCPKTPVFGHRSYLREARGD | < -0.25 |
| IFGYEWQSGQVVPLLVVPRP | < -0.25 |
| RSCVRR | < -0.25 |
| VTCAGLHYPE | -0.245 |
| FSVDSTQVYSGRHKLSPIGW | < -0.25 |
| RNRQSSNQGVSTNPCLGVHL | < -0.25 |
| TVAYVAFLLQAVHGMSQELQ | < -0.25 |
| RVL | < -0.25 |
| IWPPSSGGLTGCEFSSPFNL | < -0.25 |
| VITV | < -0.25 |
| LWGALAIGFEISS | < -0.25 |

| Substance | growth estimate |
| --- | --- |
| LAETSMLFAVVGARGACASD | < -0.25 |
| QDPFLTS | < -0.25 |
| SCPARTRIIDGWVRYLCPTP | < -0.25 |
| FPAASRPGMFD | < -0.25 |
| SLDIGVKPHVLGRRG | -0.25 |
| NLRTCDRWSGMSG | < -0.25 |
| TAPTSPTGLAVHSYAADQSP | < -0.25 |
| YIIYTGTVGPGTYGVTRDAA | -0.243 |
| RNCVIFPLSRGQVERHLD | < -0.25 |
| SQLTSLGLPFLRRSTSR | < -0.25 |
| GTSFFGLRPSIVATLSSDVS | < -0.25 |
| TRC | < -0.25 |
| AHTRPSAARVAAIEACTSPL | < -0.25 |
| QRPCQELKIGRRKLMNRREI | < -0.25 |
| VPCPPEPWGYMLALRTLRTS | < -0.25 |
| RDHILTNLPRSDNMTVM | -0.163 |
| VCLTF | < -0.25 |
| IITVSAGKT | < -0.25 |
| SCVHRRSTQLTHWKLWSGAM | < -0.25 |
| SQFVAI | < -0.25 |
| LTVPGMGTLEMLSLTLSAIA | -0.241 |
| KSLKQVSAARFA | < -0.25 |
| LQWWHLDSIPQLQVGSEDSD | < -0.25 |
| NGVSIQAYAGRGRTSVTVSQ | < -0.25 |
| KSLVSCIEDVL | < -0.25 |
